Some of the results follow.
What was measured:
Assay in all cases: log2 fold change, soluble protein after heating vs DMSO (PISA); higher = thermal stabilisation; K562 lysate, 10 uM; active = over 0.2 and 3.5 SD of the protein, either way, in both replicates (recomputed)
lapatinib = compound: CS(=O)(=O)CCNCc1ccc(-c2ccc3ncnc(Nc4ccc(OCc5cccc(F)c5)c(Cl)c4)c3c2)o1 [lapatinib]
Method in brief: (§1)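 Thermal stability, expressed as log-two fold change relative to solvent controls, is given from duplicates. Crude K562 extract in PBS pH 7.4 with 1 mM MgCl2, at 1 mg/mL protein, was treated with 10 μM compound for 30 min and heated in aliquots for 3 min across 48°C-58°C. After pooling, adjustment to 0.5% NP-40 at 4°C and centrifugation at 21,000xg for 90 min, supernatant protein was measured by TMTpro 16plex LC-MS/MS with channel sums equalised.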

Chains of the proteins cited; added tags and fusions are not shown. Lines headed by an entry give the natural chain unless they say otherwise; changes in a name come on top.
UniProt Q9UEE9, whole entry, looked up: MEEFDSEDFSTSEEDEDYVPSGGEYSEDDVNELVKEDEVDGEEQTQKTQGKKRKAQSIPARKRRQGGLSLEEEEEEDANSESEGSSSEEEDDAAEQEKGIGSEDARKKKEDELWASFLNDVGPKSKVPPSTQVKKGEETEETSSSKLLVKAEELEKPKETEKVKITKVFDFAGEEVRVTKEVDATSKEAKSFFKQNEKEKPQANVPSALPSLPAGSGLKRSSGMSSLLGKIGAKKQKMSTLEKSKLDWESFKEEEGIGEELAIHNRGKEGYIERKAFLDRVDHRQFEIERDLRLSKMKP
UniProt Q9C0F1: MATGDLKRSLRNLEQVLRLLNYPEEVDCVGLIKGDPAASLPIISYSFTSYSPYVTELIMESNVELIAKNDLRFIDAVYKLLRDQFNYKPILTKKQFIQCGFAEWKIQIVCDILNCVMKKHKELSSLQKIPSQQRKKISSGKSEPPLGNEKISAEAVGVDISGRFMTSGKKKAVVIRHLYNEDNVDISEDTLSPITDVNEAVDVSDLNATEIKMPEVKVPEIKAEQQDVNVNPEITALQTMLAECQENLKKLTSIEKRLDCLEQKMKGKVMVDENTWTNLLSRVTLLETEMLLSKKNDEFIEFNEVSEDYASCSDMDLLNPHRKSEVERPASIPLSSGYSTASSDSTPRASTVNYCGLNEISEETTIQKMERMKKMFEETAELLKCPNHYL
UniProt Q8WUX2: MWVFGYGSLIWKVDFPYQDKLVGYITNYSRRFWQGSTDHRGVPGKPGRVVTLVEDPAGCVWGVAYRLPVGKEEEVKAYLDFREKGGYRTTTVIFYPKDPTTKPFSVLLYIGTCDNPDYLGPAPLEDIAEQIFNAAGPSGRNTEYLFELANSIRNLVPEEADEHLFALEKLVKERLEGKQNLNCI
UniProt Q6P2H3: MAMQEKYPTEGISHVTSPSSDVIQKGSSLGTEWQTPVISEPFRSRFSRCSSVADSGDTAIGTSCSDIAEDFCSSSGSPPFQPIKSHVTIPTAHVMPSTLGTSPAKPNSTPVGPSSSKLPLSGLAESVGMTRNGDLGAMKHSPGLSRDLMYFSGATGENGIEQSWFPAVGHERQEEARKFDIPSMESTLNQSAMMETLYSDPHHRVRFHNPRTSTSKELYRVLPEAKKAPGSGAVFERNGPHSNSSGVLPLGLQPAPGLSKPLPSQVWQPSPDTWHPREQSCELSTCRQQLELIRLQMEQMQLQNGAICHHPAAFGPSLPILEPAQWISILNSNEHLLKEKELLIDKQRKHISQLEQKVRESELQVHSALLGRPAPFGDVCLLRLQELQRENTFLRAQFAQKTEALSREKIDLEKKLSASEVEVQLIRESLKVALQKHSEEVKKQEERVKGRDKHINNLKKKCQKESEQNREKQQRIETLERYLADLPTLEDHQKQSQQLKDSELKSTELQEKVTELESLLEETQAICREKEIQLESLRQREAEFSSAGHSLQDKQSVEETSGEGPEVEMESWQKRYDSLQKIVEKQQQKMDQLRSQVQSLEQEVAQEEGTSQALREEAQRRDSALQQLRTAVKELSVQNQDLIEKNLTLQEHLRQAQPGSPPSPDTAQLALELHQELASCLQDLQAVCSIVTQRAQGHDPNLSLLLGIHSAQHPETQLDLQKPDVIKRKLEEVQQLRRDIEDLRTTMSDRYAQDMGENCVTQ
UniProt O14735: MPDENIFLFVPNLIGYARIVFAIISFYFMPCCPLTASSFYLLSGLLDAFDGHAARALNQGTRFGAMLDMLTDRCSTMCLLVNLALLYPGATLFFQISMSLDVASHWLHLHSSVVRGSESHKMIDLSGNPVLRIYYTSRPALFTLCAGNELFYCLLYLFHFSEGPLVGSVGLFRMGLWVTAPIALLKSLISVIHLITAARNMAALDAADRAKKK
UniProt Q15517: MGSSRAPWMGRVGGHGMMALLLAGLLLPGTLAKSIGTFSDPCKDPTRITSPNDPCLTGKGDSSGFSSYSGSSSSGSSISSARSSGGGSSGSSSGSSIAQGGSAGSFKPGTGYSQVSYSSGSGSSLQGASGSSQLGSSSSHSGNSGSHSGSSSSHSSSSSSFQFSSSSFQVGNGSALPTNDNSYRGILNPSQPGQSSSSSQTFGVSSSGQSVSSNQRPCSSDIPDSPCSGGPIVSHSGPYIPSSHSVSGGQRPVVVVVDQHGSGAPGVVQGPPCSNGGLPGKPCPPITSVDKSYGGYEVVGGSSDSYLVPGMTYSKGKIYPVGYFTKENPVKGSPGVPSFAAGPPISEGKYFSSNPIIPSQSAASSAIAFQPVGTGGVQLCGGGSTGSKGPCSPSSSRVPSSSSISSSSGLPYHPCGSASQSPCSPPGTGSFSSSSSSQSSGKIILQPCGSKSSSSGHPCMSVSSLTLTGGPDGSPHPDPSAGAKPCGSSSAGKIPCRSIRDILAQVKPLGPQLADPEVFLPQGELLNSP
UniProt Q96JB5: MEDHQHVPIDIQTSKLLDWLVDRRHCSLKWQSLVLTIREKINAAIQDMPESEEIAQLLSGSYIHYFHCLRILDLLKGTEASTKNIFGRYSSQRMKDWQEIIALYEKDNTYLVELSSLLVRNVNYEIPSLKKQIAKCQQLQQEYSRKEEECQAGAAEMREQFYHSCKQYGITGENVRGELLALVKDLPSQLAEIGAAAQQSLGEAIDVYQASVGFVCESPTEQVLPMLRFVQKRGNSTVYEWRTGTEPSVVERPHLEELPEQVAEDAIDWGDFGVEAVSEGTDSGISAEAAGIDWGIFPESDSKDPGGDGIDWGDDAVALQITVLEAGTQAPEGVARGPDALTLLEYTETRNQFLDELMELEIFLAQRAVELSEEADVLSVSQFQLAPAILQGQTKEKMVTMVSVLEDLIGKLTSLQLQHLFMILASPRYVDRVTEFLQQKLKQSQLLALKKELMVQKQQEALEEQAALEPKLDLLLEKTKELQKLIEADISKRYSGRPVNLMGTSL
UniProt Q01850: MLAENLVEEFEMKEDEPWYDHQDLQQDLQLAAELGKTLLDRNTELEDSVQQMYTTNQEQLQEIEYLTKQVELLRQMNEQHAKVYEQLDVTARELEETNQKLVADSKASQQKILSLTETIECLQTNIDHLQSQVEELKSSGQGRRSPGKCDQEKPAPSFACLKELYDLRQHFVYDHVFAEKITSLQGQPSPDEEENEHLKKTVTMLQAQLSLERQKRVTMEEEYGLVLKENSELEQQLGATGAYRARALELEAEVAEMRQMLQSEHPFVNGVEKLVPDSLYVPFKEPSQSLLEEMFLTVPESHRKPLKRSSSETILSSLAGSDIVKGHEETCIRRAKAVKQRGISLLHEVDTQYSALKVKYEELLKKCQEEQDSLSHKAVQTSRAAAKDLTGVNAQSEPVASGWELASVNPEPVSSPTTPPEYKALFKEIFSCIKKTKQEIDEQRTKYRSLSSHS
UniProt Q96SN8: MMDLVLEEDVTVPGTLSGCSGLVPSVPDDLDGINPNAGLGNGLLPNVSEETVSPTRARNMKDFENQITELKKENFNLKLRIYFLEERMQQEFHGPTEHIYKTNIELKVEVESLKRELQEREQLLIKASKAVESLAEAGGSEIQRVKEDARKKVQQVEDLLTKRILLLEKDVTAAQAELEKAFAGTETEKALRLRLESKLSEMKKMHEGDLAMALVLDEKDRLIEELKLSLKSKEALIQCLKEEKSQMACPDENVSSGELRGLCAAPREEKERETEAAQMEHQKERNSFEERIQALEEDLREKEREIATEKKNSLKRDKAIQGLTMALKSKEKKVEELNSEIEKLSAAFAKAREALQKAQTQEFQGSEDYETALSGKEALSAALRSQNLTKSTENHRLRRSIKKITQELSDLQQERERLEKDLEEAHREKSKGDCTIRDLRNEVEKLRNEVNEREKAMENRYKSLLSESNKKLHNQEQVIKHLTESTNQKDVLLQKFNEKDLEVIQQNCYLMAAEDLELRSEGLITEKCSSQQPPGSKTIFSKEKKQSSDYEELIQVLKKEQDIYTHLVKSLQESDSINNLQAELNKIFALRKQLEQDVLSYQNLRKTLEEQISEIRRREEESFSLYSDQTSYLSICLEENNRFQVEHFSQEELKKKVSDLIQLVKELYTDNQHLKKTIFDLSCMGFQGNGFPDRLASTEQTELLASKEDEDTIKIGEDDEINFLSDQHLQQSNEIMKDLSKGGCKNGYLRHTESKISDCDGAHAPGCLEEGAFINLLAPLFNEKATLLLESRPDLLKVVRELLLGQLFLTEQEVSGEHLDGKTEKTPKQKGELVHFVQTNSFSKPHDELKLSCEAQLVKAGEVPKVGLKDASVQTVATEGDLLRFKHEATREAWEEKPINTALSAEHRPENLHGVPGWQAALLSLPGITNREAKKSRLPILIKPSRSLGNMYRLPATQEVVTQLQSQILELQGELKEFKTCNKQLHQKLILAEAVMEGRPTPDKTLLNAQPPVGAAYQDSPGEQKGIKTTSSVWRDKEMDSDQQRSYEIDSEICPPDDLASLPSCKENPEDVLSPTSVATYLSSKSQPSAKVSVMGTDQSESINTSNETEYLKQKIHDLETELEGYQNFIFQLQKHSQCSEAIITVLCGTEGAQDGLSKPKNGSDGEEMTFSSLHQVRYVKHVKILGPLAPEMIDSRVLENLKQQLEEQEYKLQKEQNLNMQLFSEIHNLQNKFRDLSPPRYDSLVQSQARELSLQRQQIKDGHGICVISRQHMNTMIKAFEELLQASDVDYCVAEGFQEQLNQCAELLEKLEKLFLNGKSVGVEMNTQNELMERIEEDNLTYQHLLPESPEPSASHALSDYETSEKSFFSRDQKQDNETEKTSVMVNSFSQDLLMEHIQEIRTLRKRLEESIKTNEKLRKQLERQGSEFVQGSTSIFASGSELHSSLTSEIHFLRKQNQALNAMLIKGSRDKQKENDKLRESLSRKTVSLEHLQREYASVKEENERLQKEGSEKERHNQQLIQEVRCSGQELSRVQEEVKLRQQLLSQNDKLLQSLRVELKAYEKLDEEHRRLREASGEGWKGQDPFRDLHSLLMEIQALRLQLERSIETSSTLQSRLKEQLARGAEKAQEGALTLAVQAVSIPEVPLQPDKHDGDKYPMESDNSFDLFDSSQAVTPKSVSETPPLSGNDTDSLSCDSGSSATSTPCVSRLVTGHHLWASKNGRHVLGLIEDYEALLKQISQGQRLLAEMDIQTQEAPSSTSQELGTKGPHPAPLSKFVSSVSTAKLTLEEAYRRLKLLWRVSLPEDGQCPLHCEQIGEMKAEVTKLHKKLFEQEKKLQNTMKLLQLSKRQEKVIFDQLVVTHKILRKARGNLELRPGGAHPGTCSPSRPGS
UniProt P60953, whole entry, looked up: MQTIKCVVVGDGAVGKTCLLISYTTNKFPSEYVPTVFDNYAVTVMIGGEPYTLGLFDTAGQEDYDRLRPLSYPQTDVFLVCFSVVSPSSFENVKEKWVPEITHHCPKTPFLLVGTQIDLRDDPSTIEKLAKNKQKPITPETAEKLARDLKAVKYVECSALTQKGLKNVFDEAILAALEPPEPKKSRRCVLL
UniProt O60508: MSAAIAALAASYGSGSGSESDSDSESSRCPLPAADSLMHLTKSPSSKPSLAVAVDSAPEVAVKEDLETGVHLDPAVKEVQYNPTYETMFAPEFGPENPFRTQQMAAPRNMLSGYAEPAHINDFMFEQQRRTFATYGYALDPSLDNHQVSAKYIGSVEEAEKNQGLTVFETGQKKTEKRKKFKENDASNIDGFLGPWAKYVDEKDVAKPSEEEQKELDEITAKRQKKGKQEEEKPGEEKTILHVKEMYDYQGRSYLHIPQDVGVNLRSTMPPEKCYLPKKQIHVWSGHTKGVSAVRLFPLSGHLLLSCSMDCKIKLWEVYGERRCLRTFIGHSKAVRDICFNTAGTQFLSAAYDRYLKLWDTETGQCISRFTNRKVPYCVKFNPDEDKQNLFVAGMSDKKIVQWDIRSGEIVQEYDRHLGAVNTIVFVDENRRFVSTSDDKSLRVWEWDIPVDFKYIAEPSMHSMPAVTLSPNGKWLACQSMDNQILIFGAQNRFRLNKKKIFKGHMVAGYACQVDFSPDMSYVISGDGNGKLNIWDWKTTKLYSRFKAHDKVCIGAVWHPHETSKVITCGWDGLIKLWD
UniProt Q00534, whole entry, looked up: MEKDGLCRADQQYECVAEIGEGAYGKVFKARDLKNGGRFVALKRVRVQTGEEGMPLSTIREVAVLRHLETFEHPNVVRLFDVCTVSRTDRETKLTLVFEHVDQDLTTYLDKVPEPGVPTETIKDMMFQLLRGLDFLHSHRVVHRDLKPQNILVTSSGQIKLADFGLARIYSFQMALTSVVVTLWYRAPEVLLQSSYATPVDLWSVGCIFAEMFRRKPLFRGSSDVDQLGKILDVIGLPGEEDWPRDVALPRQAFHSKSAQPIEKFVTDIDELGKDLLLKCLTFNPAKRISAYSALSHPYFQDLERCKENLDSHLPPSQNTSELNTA
UniProt Q9Y6A4: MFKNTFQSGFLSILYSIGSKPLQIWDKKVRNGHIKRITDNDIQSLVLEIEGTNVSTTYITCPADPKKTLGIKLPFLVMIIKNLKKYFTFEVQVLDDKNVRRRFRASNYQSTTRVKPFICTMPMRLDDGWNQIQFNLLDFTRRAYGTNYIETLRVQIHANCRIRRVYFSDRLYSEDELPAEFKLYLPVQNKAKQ

pictilisib = compound: CS(=O)(=O)N1CCN(Cc2cc3nc(-c4cccc5[nH]ncc45)nc(N4CCOCC4)c3s2)CC1 [pictilisib]
Method in brief: as §1

crizotinib = compound: C[C@@H](Oc1cc(-c2cnn(C3CCNCC3)c2)cnc1N)c1c(Cl)ccc(F)c1Cl [crizotinib]
Method in brief: as §1

[1] = compound: C[C@H](C1=CC=C(C=C1)C(=O)NC2=C3C=CNC3=NC=C2)N
Method in brief: as §1

duvelisib = compound: C[C@H](Nc1ncnc2nc[nH]c12)c1cc2cccc(Cl)c2c(=O)n1-c1ccccc1 [duvelisib]
Method in brief: as §1

gandotinib = compound: Cc1cc(Nc2cc(CN3CCOCC3)c3nc(C)c(Cc4ccc(Cl)cc4F)n3n2)n[nH]1 [gandotinib]
Method in brief: as §1

tozasertib = compound: Cc1cc(Nc2cc(N3CCN(C)CC3)nc(Sc3ccc(NC(=O)C4CC4)cc3)n2)n[nH]1 [tozasertib]
Method in brief: as §1

doramapimod = compound: Cc1ccc(-n2nc(C(C)(C)C)cc2NC(=O)Nc2ccc(OCCN3CCOCC3)c3ccccc23)cc1 [doramapimod]
Method in brief: as §1

bafetinib = compound: Cc1ccc(NC(=O)c2ccc(CN3CC[C@H](N(C)C)C3)c(C(F)(F)F)c2)cc1Nc1nccc(-c2cncnc2)n1 [bafetinib]
Method in brief: as §1

[2] = compound: Cc1cccc(CC(=O)N2CCc3c2ccc(-c2cn(C)c4ncnc(N)c24)c3F)n1
Method in brief: as §1

nilotinib = compound: Cc1cn(-c2cc(NC(=O)c3ccc(C)c(Nc4nccc(-c5cccnc5)n4)c3)cc(C(F)(F)F)c2)cn1 [nilotinib]
Method in brief: as §1

[3] = compound: Cc1nc(Nc2n[nH]c3c2CN(C(=O)N[C@H](CN(C)C)c2ccccc2)C3(C)C)c2sccc2n1
Method in brief: as §1

dasatinib = compound: Cc1nc(Nc2ncc(C(=O)Nc3c(C)cccc3Cl)s2)cc(N2CCN(CCO)CC2)n1 [dasatinib]
Method in brief: as §1

[4] = compound: Cc1ncc(-c2ccnc(Nc3ccc(S(C)(=O)=O)cc3)n2)n1C(C)C
Method in brief: as §1

[5] = compound: Cn1cc(-c2ccc3c(c2)CCN3C(=O)Cc2cccc(C(F)(F)F)c2)c2c(N)ncnc21
Method in brief: as §1

quisinostat = compound: Cn1cc(CNCC2CCN(c3ncc(C(=O)NO)cn3)CC2)c2ccccc21 [quisinostat]
Method in brief: as §1

tipifarnib = compound: Cn1cncc1[C@@](N)(c1ccc(Cl)cc1)c1ccc2c(c1)c(-c1cccc(Cl)c1)cc(=O)n2C [tipifarnib]
Method in brief: as §1

[6] = compound: NC(=O)Nc1cc(-c2cccc(F)c2)sc1C(=O)N[C@H]1CCCNC1
Method in brief: as §1

[7] = compound: NC(=O)c1cnc(N[C@@H]2CCCC[C@@H]2N)nc1Nc1cccc(-n2nccn2)c1
Method in brief: as §1

[8] = compound: NC1(c2ccc(-c3nc4ccn5c(=O)[nH]nc5c4cc3-c3ccccc3)cc2)CCC1
Method in brief: as §1

| Target | log2 fold change (lapatinib) | log2 fold change (pictilisib) | log2 fold change (crizotinib) | log2 fold change [1] | log2 fold change (duvelisib) | log2 fold change (gandotinib) | log2 fold change (tozasertib) | log2 fold change (doramapimod) | log2 fold change (bafetinib) | log2 fold change [2] | log2 fold change (nilotinib) | log2 fold change [3] | log2 fold change (dasatinib) | log2 fold change [4] | log2 fold change [5] | log2 fold change (quisinostat) | log2 fold change (tipifarnib) | log2 fold change [6] | log2 fold change [7] | log2 fold change [8] |
| --- | --- | --- | --- | --- | --- | --- | --- | --- | --- | --- | --- | --- | --- | --- | --- | --- | --- | --- | --- | --- |
| CFDP1 (UniProt Q9UEE9) | inactive: -0.018 | inactive: 0.008 | inactive: -0.052 | active: -0.288 | inactive: 0.006 | inactive: 0.066 | inactive: -0.032 | inactive: 0.041 | inactive: 0.07 | inactive: 0.091 | inactive: -0.008 | inactive: 0.051 | inactive: 0.029 | inactive: 0.035 | inactive: 0.009 | inactive: -0.102 | inactive: 0.013 | inactive: -0.038 | inactive: -0.013 | inactive: -0.026 |
| CEP44 (UniProt Q9C0F1) | inactive: 0.029 | inactive: -0.007 | inactive: 0.027 | inactive: 0.054 | inactive: -0.004 | inactive: -0.064 | inactive: -0.02 | inactive: 0 | inactive: -0.002 | inactive: -0.066 | inactive: -0.011 | inactive: 0.007 | inactive: 0.023 | inactive: -0.022 | inactive: -0.013 | inactive: 0.016 | inactive: 0.007 | inactive: 0.011 | inactive: 0.017 | inactive: 0.033 |
| CHAC2 (UniProt Q8WUX2) | inactive: 0.038 | inactive: -0.011 | inactive: 0.003 | active: 0.57 | inactive: 0.038 | inactive: -0.161 | inactive: 0.015 | inactive: -0.01 | inactive: -0.018 | inactive: -0.198 | inactive: 0.004 | inactive: 0.043 | inactive: -0.022 | inactive: -0.024 | inactive: 0.036 | inactive: -0.066 | inactive: 0.041 | inactive: 0.019 | inactive: 0.017 | inactive: -0.027 |
| CEP85 isoform 2 (UniProt Q6P2H3) | inactive: 0.011 | inactive: -0.029 | inactive: -0.005 | inactive: 0.122 | inactive: 0.008 | inactive: -0.075 | inactive: -0.019 | inactive: -0.011 | inactive: -0.135 | inactive: -0.035 | inactive: -0.027 | inactive: 0.027 | inactive: -0.021 | inactive: 0.015 | inactive: -0.003 | inactive: -0.003 | inactive: -0.062 | inactive: 0.049 | inactive: 0.029 | inactive: -0.007 |
| CDIPT (UniProt O14735) | inactive: -0.056 | inactive: -0.021 | inactive: 0.064 | inactive: 0.016 | inactive: 0.022 | inactive: -0.188 | inactive: -0.016 | inactive: 0.07 | inactive: -0.008 | inactive: 0.062 | inactive: -0.019 | inactive: -0.02 | inactive: 0.036 | inactive: -0.074 | inactive: -0.01 | inactive: 0.017 | inactive: -0.03 | inactive: -0.05 | inactive: 0.004 | inactive: 0.047 |
| CEP192 (UniProt Q8TEP8) | inactive: -0.043 | inactive: -0.064 | inactive: 0.046 | inactive: -0.112 | inactive: 0.022 | inactive: 0.069 | inactive: 0.071 | inactive: 0.002 | inactive: -0.122 | inactive: 0.159 | inactive: -0.012 | inactive: 0.005 | inactive: 0.027 | inactive: 0.015 | inactive: -0.015 | inactive: 0 | inactive: -0.018 | inactive: 0.009 | inactive: 0.026 | inactive: 0.039 |
| CDSN (UniProt Q15517) | inactive: -0.006 | inactive: 0.159 | inactive: 0.094 | inactive: 0.29 | inactive: -0.136 | inactive: -0.287 | inactive: 0.62 | inactive: -0.119 | inactive: 0.256 | inactive: -0.071 | inactive: 0.021 | inactive: 0.489 | inactive: -0.018 | inactive: -0.193 | inactive: -0.105 | inactive: 0.53 | inactive: -0.196 | inactive: -0.285 | inactive: 0.191 | inactive: 0.229 |
| CDK5RAP3 isoform 4 (UniProt Q96JB5) | inactive: -0.013 | inactive: -0.028 | inactive: -0.054 | active: -0.231 | inactive: -0.002 | inactive: 0.173 | inactive: 0.019 | inactive: 0.017 | inactive: -0.02 | inactive: 0.211 | inactive: 0.003 | inactive: -0.016 | inactive: -0.067 | inactive: 0.006 | inactive: 0.045 | inactive: -0.03 | inactive: -0.043 | inactive: 0.023 | inactive: 0.026 | inactive: -0.007 |
| CDR2 (UniProt Q01850) | inactive: -0.04 | inactive: -0.018 | inactive: -0.012 | inactive: -0.027 | inactive: -0.078 | inactive: 0.032 | inactive: 0.026 | inactive: -0.009 | inactive: -0.026 | inactive: 0.03 | inactive: 0.029 | inactive: -0.086 | inactive: 0 | inactive: 0.009 | inactive: 0.004 | inactive: -0.027 | inactive: 0.032 | inactive: 0.009 | inactive: -0.053 | inactive: 0.003 |
| CDK5RAP2 (UniProt Q96SN8) | inactive: -0.182 | inactive: -0.04 | inactive: -0.035 | inactive: -0.032 | inactive: 0.023 | inactive: -0.092 | inactive: 0.024 | inactive: 0.003 | inactive: 0 | inactive: 0.084 | inactive: 0.024 | inactive: -0.009 | inactive: -0.002 | inactive: 0.056 | inactive: -0.015 | inactive: -0.081 | inactive: -0.011 | inactive: -0.006 | inactive: -0.104 | inactive: -0.001 |
| CDC42 (UniProt P60953) | inactive: -0.038 | inactive: -0.007 | inactive: -0.023 | inactive: 0.112 | inactive: -0.024 | inactive: -0.124 | inactive: -0.01 | inactive: -0.038 | inactive: 0.48 | inactive: -0.08 | inactive: -0.036 | inactive: 0.065 | inactive: 0.084 | inactive: 0.026 | inactive: -0.022 | inactive: 0.109 | inactive: -0.028 | inactive: -0.021 | inactive: 0.041 | inactive: 0.017 |
| CDC40 (UniProt O60508) | inactive: -0.028 | inactive: 0.039 | inactive: -0.053 | inactive: -0.027 | inactive: 0 | inactive: 0.002 | inactive: -0.038 | inactive: -0.005 | inactive: -0.033 | inactive: 0.006 | inactive: -0.015 | inactive: -0.026 | inactive: -0.005 | inactive: 0.039 | inactive: 0.058 | inactive: -0.138 | inactive: 0.046 | inactive: 0.02 | inactive: 0.063 | inactive: 0.097 |
| CDK6 (UniProt Q00534) | inactive: -0.015 | inactive: -0.007 | inactive: 0.019 | inactive: 0.004 | inactive: -0.008 | inactive: -0.064 | inactive: -0.002 | inactive: -0.01 | inactive: 0.005 | inactive: -0.035 | inactive: 0.019 | inactive: -0.004 | inactive: 0.036 | inactive: 0.061 | inactive: 0.014 | inactive: -0.01 | inactive: 0.042 | inactive: -0.022 | inactive: -0.006 | inactive: 0 |
| CDK1 (UniProt P06493) | inactive: -0.012 | inactive: -0.021 | inactive: -0.041 | inactive: -0.018 | inactive: 0.031 | inactive: -0.224 | inactive: 0.001 | inactive: 0.019 | inactive: -0.016 | inactive: -0.022 | inactive: -0.026 | inactive: 0.018 | inactive: -0.027 | inactive: 0.067 | inactive: -0.02 | inactive: 0.003 | inactive: 0.015 | inactive: 0.012 | inactive: 0.127 | inactive: 0.015 |
| CEBPZ (UniProt Q03701) | inactive: 0.025 | inactive: 0.014 | inactive: -0.043 | inactive: 0.016 | inactive: -0.035 | inactive: -0.009 | inactive: -0.002 | inactive: 0.034 | inactive: -0.113 | inactive: 0.008 | inactive: 0.024 | inactive: -0.018 | inactive: -0.023 | inactive: 0 | inactive: 0.005 | inactive: -0.015 | inactive: 0.018 | inactive: 0.078 | inactive: -0.013 | inactive: -0.026 |
| CFAP20 (UniProt Q9Y6A4) | inactive: -0.012 | inactive: -0.013 | inactive: -0.011 | inactive: -0.198 | inactive: -0.009 | inactive: 0.068 | inactive: -0.03 | inactive: 0.019 | inactive: -0.075 | inactive: 0.064 | inactive: -0.021 | inactive: 0.008 | inactive: 0.026 | inactive: -0.001 | inactive: -0.02 | inactive: -0.05 | inactive: -0.026 | inactive: 0.016 | inactive: -0.01 | inactive: 0.004 |

Fetched one by one from the entries so far (2):

| Target | log2 fold change (lapatinib) | log2 fold change (pictilisib) | log2 fold change (crizotinib) | log2 fold change [1] | log2 fold change (duvelisib) | log2 fold change (gandotinib) | log2 fold change (tozasertib) | log2 fold change (doramapimod) | log2 fold change (bafetinib) | log2 fold change [2] | log2 fold change (nilotinib) | log2 fold change [3] | log2 fold change (dasatinib) | log2 fold change [4] | log2 fold change [5] | log2 fold change (quisinostat) | log2 fold change (tipifarnib) | log2 fold change [6] | log2 fold change [7] | log2 fold change [8] |
| --- | --- | --- | --- | --- | --- | --- | --- | --- | --- | --- | --- | --- | --- | --- | --- | --- | --- | --- | --- | --- |
| CDK6 (UniProt Q00534) | inactive: -0.015 | inactive: -0.007 | inactive: 0.019 | inactive: 0.004 | inactive: -0.008 | inactive: -0.064 | inactive: -0.002 | inactive: -0.01 | inactive: 0.005 | inactive: -0.035 | inactive: 0.019 | inactive: -0.004 | inactive: 0.036 | inactive: 0.061 | inactive: 0.014 | inactive: -0.01 | inactive: 0.042 | inactive: -0.022 | inactive: -0.006 | inactive: 0 |
| CFAP20 (UniProt Q9Y6A4) | inactive: -0.012 | inactive: -0.013 | inactive: -0.011 | inactive: -0.198 | inactive: -0.009 | inactive: 0.068 | inactive: -0.03 | inactive: 0.019 | inactive: -0.075 | inactive: 0.064 | inactive: -0.021 | inactive: 0.008 | inactive: 0.026 | inactive: -0.001 | inactive: -0.02 | inactive: -0.05 | inactive: -0.026 | inactive: 0.016 | inactive: -0.01 | inactive: 0.004 |

Source: the supplement of paper PMC10849652
